± gives the standard deviation of the averaged measurements. These are raw signals, not scaled to a control.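 For antimicrobials the highest concentration approximated the MIC. Most other compounds topped out at 500 µM, and known inducer-like compounds reached up to 1 mM. Inocula for deletion strains were tenfold smaller, and any well growing below 10% of the overall median was considered non-growing.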
Test system: Escherichia coli BW25113
Assay: growth (OD600 area under curve, 8 h) (OD600 x h); higher = more growth
Method: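 E. coli BW25113 reporter strains (wild type, ΔmarA, ΔsoxS, Δrob, each carrying one of 8 lux reporter plasmids) were grown in 40 µl LB in 384-well plates at 37°C, 800 rpm, with each compound at 4 two-fold concentrations, in biological duplicates. Growth is the baseline-corrected OD600 area under the curve over 8 h (0-8 h WT, 1-9 h deletion strains).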

C[C@H](CCC(=O)O)[C@H]1CC[C@H]2[C@@H]3CC[C@@H]4C[C@H](O)CC[C@]4(C)[C@H]3CC[C@]12C [Lithocholic acid]
growth
Conditions	reporter plasmid: EVC	reporter plasmid: acrABp	reporter plasmid: marRABp	reporter plasmid: micFp	reporter plasmid: ompFp	reporter plasmid: robp	reporter plasmid: soxSp	reporter plasmid: tolCp
23.5 µg/ml, genetic background: wild type	2.79 ± 0.1	2.68 ± 0.13	2.97 ± 0.092	3.31 ± 0.17	2.96 ± 0.28	2.73 ± 0.029	2.58 ± 0.27	2.74 ± 0.036
23.5 µg/ml, genetic background: ΔmarA	3.1 ± 0.53	3.67 ± 0.35	3.09 ± 0.25	3.26 ± 0.64	2.89 ± 0.62	3.55 ± 0.29	3.06 ± 0.49	2.91 ± 0.36
23.5 µg/ml, genetic background: Δrob	3.08 ± 0.55	2.78 ± 0.046	3.04 ± 0.36	2.94 ± 0.24	2.67 ± 0.52	2.6136 ± 0.00026	3.03 ± 0.28	3.43 ± 0.19
23.5 µg/ml, genetic background: ΔsoxS	3.31 ± 0.04	3.82 ± 0.25	3.66 ± 1.3	2.85 ± 0.33	2.8855 ± 0.00016	3.25 ± 0.35	3.31 ± 0.17	3.25 ± 0.48
47.1 µg/ml, genetic background: wild type	2.48 ± 0.22	2.53 ± 0.11	2.76 ± 0.25	2.79 ± 0.56	2.81 ± 0.14	2.83 ± 0.15	2.62 ± 0.048	2.556 ± 0.011
47.1 µg/ml, genetic background: ΔmarA	3.13 ± 0.28	3.34 ± 0.084	3.07 ± 0.21	2.88 ± 0.3	2.97 ± 1.1	3.28 ± 0.74	3.07 ± 0.77	2.8 ± 0.35
47.1 µg/ml, genetic background: Δrob	2.79 ± 0.52	2.65 ± 0.084	2.84 ± 0.049	3.04 ± 0.49	2.21 ± 0.44	2.49 ± 0.075	2.76 ± 0.16	3.06 ± 0.24
47.1 µg/ml, genetic background: ΔsoxS	3.17 ± 0.061	3.71 ± 0.076	2.75 ± 0.27	2.74 ± 0.099	2.74 ± 0.1	2.89 ± 0.24	3.41 ± 0.12	3.23 ± 0.55
94.1 µg/ml, genetic background: wild type	2.49 ± 0.035	2.16 ± 0.33	2.63 ± 0.068	2.58 ± 0.034	2.93 ± 0.071	2.78 ± 0.028	2.28 ± 0.086	2.58 ± 0.086
94.1 µg/ml, genetic background: ΔmarA	3 ± 0.093	3.84 ± 0.18	3.5 ± 0.14	2.82 ± 0.041	2.91 ± 0.49	3.52 ± 0.38	2.88 ± 0.54	2.96 ± 0.24
94.1 µg/ml, genetic background: Δrob	2.69 ± 0.22	3.19 ± 0.57	3.17 ± 0.24	2.98 ± 0.14	2.62 ± 0.71	2.91 ± 0.22	2.93 ± 0.18	3.27 ± 0.044
94.1 µg/ml, genetic background: ΔsoxS	3.63 ± 0.18	3.47 ± 0.27	3.16 ± 0.55	3.44 ± 0.26	3.48 ± 0.24	3.38 ± 0.49	3.26 ± 0.17	3.61 ± 0.25
188.3 µg/ml, genetic background: wild type	2.54 ± 0.048	2.4641 ± 0.0002	2.7 ± 0.21	2.71 ± 0.35	2.49 ± 0.028	2.91 ± 0.45	2.56 ± 0.31	2.44 ± 0.087
188.3 µg/ml, genetic background: ΔmarA	2.91 ± 0.056	3.86 ± 0.37	3.42 ± 0.05	2.82 ± 0.33	3.41 ± 0.57	3.58 ± 0.07	2.96 ± 0.4	2.93 ± 0.2
188.3 µg/ml, genetic background: Δrob	2.68 ± 0.57	2.8 ± 0.21	2.83 ± 0.28	2.95 ± 0.11	2.71 ± 0.21	2.87 ± 0.41	2.74 ± 0.3	2.74 ± 0.065
188.3 µg/ml, genetic background: ΔsoxS	3.48 ± 0.16	3.25 ± 0.36	2.88 ± 0.1	3.1 ± 0.18	2.88 ± 0.066	3.09 ± 0.046	3.01 ± 0.28	3.39 ± 0.16

C[C@@H](O)[C@H]1C(=O)N2C(C(=O)O)=C(S[C@@H]3CN[C@H](C(=O)N(C)C)C3)[C@H](C)[C@H]12 [Meropenem]
growth
Conditions	reporter plasmid: EVC	reporter plasmid: acrABp	reporter plasmid: marRABp	reporter plasmid: micFp	reporter plasmid: ompFp	reporter plasmid: robp	reporter plasmid: soxSp	reporter plasmid: tolCp
0.011 µg/ml, genetic background: wild type	2.92 ± 0.069	3.28 ± 0.18	3.419 ± 0.031	3.13 ± 0.38	3.27 ± 0.2	3.19 ± 0.16	2.9 ± 0.13	3.12 ± 0.12
0.011 µg/ml, genetic background: ΔmarA	3.33 ± 0.62	4.35 ± 0.68	3.86 ± 0.23	3.05 ± 0.54	3.74 ± 0.81	4.01 ± 0.46	2.96 ± 0.47	3.06 ± 0.15
0.011 µg/ml, genetic background: Δrob	2.89 ± 0.43	3.77 ± 0.14	3.62 ± 0.3	3.31 ± 0.39	2.75 ± 0.35	3.06 ± 0.24	3.12 ± 0.69	3.3 ± 0.5
0.011 µg/ml, genetic background: ΔsoxS	3.12 ± 0.033	3.16 ± 0.65	3.43 ± 0.68	2.77 ± 0.084	3.3 ± 0.5	3.71 ± 0.29	3.24 ± 0.51	3.11 ± 0.23
0.022 µg/ml, genetic background: wild type	2.712 ± 0.015	2.74 ± 0.15	2.82 ± 0.43	2.64 ± 0.091	2.69 ± 0.039	2.24 ± 0.92	1.73 ± 0.85	2.66 ± 0.26
0.022 µg/ml, genetic background: ΔmarA	2.9 ± 0.56	3.48 ± 0.22	3.29 ± 0.077	2.99 ± 0.67	3.21 ± 0.71	3.4 ± 0.82	2.63 ± 0.46	2.65 ± 0.12
0.022 µg/ml, genetic background: Δrob	2.53 ± 0.32	2.86 ± 0.23	3.04 ± 0.56	2.97 ± 0.66	2.26 ± 0.032	2.8 ± 0.14	2.44 ± 0.29	3.14 ± 0.43
0.022 µg/ml, genetic background: ΔsoxS	2.94 ± 0.38	3.07 ± 0.69	2.66 ± 0.23	2.62 ± 0.051	2.82 ± 0.083	3.03 ± 0.23	2.79 ± 0.48	2.71 ± 0.037
0.044 µg/ml, genetic background: wild type	1.43 ± 0.21	0.916 ± 0.054	0.702 ± 0.75	0.648 ± 0.086	0.555 ± 0.22	0.217 ± 0.26	0.178 ± 0.055	0.93 ± 0.96
0.044 µg/ml, genetic background: ΔmarA	0.967 ± 0.59	0.885 ± 0.66	0.509 ± 0.68	2.02 ± 1.6	1.97 ± 1.4	1.19 ± 0.84	0.254 ± 0.18	0.523 ± 0.8
0.044 µg/ml, genetic background: Δrob	0.798 ± 0.019	0.561 ± 0.43	0.685 ± 0.75	0.67 ± 0.36	0.362 ± 0.31	0.694 ± 0.12	0.313 ± 0.052	1.07 ± 0.57
0.044 µg/ml, genetic background: ΔsoxS	1.86 ± 1.5	1.76 ± 1.7	1.28 ± 1.6	2.24 ± 0.49	2.32 ± 0.43	1.98 ± 0.29	2.05 ± 0.22	1.48 ± 1.8
0.088 µg/ml, genetic background: wild type	-0.0481 ± 0.0088	-0.456 ± 0.083	0.0867 ± 0.034	0.0349 ± 0.03	0.0106 ± 0.0047	0.0556 ± 0.035	0.0618 ± 0.0093	0.12 ± 0.04
0.088 µg/ml, genetic background: ΔmarA	-0.0251 ± 0.067	-0.0383 ± 0.12	0.0209 ± 0.085	-0.0509 ± 0.019	-0.0774 ± 0.0094	-0.032 ± 0.053	-0.0187 ± 0.026	-0.116 ± 0.11
0.088 µg/ml, genetic background: Δrob	-0.126 ± 0.21	0.025 ± 0.033	-0.013 ± 0.03	-0.0418 ± 0.07	-0.0297 ± 0.053	0.0239 ± 0.02	-0.00892 ± 0.09	0.00691 ± 0.067
0.088 µg/ml, genetic background: ΔsoxS	-0.0187 ± 0.049	0.0101 ± 0.052	0.109 ± 0.063	-0.0294 ± 0.021	0.0543 ± 0.054	-0.0435 ± 0.039	-0.00319 ± 0.0088	-0.0173 ± 0.029

CN(C)C(=N)NC(=N)N [Metformin]
growth
Conditions	reporter plasmid: EVC	reporter plasmid: acrABp	reporter plasmid: marRABp	reporter plasmid: micFp	reporter plasmid: ompFp	reporter plasmid: robp	reporter plasmid: soxSp	reporter plasmid: tolCp
20.7 µg/ml, genetic background: wild type	3.15 ± 0.081	3.43 ± 0.25	3.49 ± 0.13	3.22 ± 0.32	3.44 ± 0.18	3.48 ± 0.064	3.119 ± 0.012	3.35 ± 0.069
20.7 µg/ml, genetic background: ΔmarA	3.46 ± 0.56	4.4 ± 0.37	3.78 ± 0.17	3.22 ± 0.96	3.58 ± 0.66	4.2 ± 0.48	2.99 ± 0.57	3.19 ± 0.15
20.7 µg/ml, genetic background: Δrob	3.05 ± 0.27	3.31 ± 0.32	3.58 ± 0.37	3.22 ± 0.29	2.78 ± 0.36	2.82 ± 0.26	3.03 ± 0.55	3.19 ± 0.12
20.7 µg/ml, genetic background: ΔsoxS	3.256 ± 0.0065	3.22 ± 0.49	3.49 ± 0.6	2.83 ± 0.21	3.37 ± 0.16	3.63 ± 0.14	3.02 ± 0.41	3.36 ± 0.25
41.4 µg/ml, genetic background: wild type	3.16 ± 0.072	3.33 ± 0.34	3.375 ± 0.02	3.28 ± 0.3	3.34 ± 0.11	3.42 ± 0.17	3.1 ± 0.09	3.26 ± 0.0058
41.4 µg/ml, genetic background: ΔmarA	3.4 ± 0.33	4.41 ± 0.61	3.96 ± 0.31	3.22 ± 0.7	3.68 ± 0.73	4.17 ± 0.24	2.94 ± 0.53	3.05 ± 0.076
41.4 µg/ml, genetic background: Δrob	2.9 ± 0.3	3.0548 ± 0.0011	3.48 ± 0.61	3.2 ± 0.32	2.69 ± 0.54	2.8 ± 0.42	3.02 ± 0.29	3.21 ± 0.2
41.4 µg/ml, genetic background: ΔsoxS	3.288 ± 0.013	3.3 ± 0.15	3.37 ± 0.92	3.05 ± 0.26	3.25 ± 0.2	3.35 ± 0.49	3.2 ± 0.37	3.19 ± 0.29
82.8 µg/ml, genetic background: wild type	3.07 ± 0.14	3.22 ± 0.49	3.302 ± 0.0059	3.2 ± 0.14	3.45 ± 0.16	3.45 ± 0.12	3.128 ± 0.0038	3.24 ± 0.043
82.8 µg/ml, genetic background: ΔmarA	3.61 ± 0.67	4.3 ± 0.77	3.83 ± 0.47	3.45 ± 0.57	3.77 ± 0.54	4.22 ± 0.23	3.13 ± 0.15	3.32 ± 0.11
82.8 µg/ml, genetic background: Δrob	3.09 ± 0.39	2.92 ± 0.042	3.5 ± 0.2	3.17 ± 0.14	2.97 ± 0.4	2.877 ± 0.011	3.09 ± 0.2	3.1145 ± 0.00091
82.8 µg/ml, genetic background: ΔsoxS	3.38 ± 0.11	3.55 ± 0.47	3.6 ± 0.68	3.07 ± 0.077	3.36 ± 0.22	3.51 ± 0.19	3.48 ± 0.29	3.37 ± 0.13
165.6 µg/ml, genetic background: wild type	3.07 ± 0.098	3.165 ± 0.028	3.35 ± 0.073	3 ± 0.078	3.31 ± 0.063	3.5 ± 0.15	3.17 ± 0.04	3.16 ± 0.12
165.6 µg/ml, genetic background: ΔmarA	3.46 ± 0.66	4.05 ± 0.64	3.8 ± 0.46	3.3 ± 0.48	3.57 ± 0.42	4.03 ± 0.18	3.04 ± 0.56	3.14 ± 0.033
165.6 µg/ml, genetic background: Δrob	2.99 ± 0.52	2.67 ± 0.12	3.27 ± 0.4	3.04 ± 0.14	2.82 ± 0.41	2.61 ± 0.028	2.83 ± 0.36	3.18 ± 0.069
165.6 µg/ml, genetic background: ΔsoxS	3.25 ± 0.14	3.06 ± 0.35	3.26 ± 0.85	2.66 ± 0.32	3.09 ± 0.29	3.17 ± 0.22	3.27 ± 0.19	3.45 ± 0.26

— the supplement of paper PMC12282887
